Experimental data taken from PubChem BioAssay AID493014 (National Center for Advancing Translational Sciences (NCATS), 2011).
Some of the results follow. These are further read-outs of the screen, such as a control signal, another cell line or another target. No call is given for them. Most of these compounds were active or inconclusive in the main read-out, so they are no random draw. The note in brackets gives the kind of curve behind each potency; many fits are weak. Square brackets hold non-standard residues; d marks the D form. Peptide text beside a SMILES is read from it. * marks the point of attachment. Tos = Cc1ccc(S(=O)(=O)*)cc1

Assay: qHTS Assay to Find Inhibitors of Chronic Active B-Cell Receptor Signaling
Details: ABC-DLBCL IkBa-CBG/CBR reporter, luminescence ratio (green luciferase fused to IkBa over red control in TMD8 lymphoma cells), 4 h
Outline: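 TMD8 ABC-DLBCL cells carrying doxycycline-inducible green luciferase fused to IkappaBalpha plus unfused red luciferase were exposed to compounds (up to 46 uM) for 4 hrs at 37C. Activity came from the overlap-corrected green/red luminescence ratio.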

[1] = measured here: CBR red luminescence, cell number
[2] = measured here: IkBa-CBG green luminescence

SMILES	AC50 [1]	AC50 [2]
Clc1ccccc1-c1nnc(-c2ccc3c(c2)OCO3)o1	25.1 µM [falling, single point]	
CCCCNC(=O)/C(C#N)=C/c1ccc(F)cc1F	35.5 µM [falling, single point]	
O=[N+]([O-])c1cccnc1Sc1n[nH]c(-c2ccc(Cl)cc2)n1	11.2 µM [falling, single point]	
CCOC(=O)c1cnc2ccc(F)cc2c1Nc1ccc2c(c1)OCCO2	20.6 µM [falling, single point]	
CCOC(=O)C1CCN(C(=O)c2cc3cc4ccc(C)cc4nc3o2)CC1	1.12 µM [falling, full curve]	
CCN(CC)C(=O)C1CCCN(c2ccc([N+](=O)[O-])cc2[N+](=O)[O-])C1 (configuration not stated)	35.5 µM [falling, single point]	
Oc1ccc(/C=N/Nc2ccc(Cl)nn2)c(O)c1O	15.8 µM [rising, partial curve, poor fit]	
Cc1ccc(-n2nnnc2Sc2ccc(S(=O)(=O)NCCN(C)C)cc2[N+](=O)[O-])cc1	4.61 µM [falling, partial curve]	
Cc1nc2ccc(-c3nc4ccccc4[nH]3)cc2[nH]1	8.91 µM [falling, partial curve]	
CCOc1ccc(NC(=O)NC(C)c2ccc3c(c2)OCO3)cc1 (configuration not stated)	10 µM [rising, partial curve]	
CCn1ncc(Br)c1C(=O)Nc1cc([N+](=O)[O-])ccc1C	0.92 µM [rising, full curve, poor fit]	
CCCNc1nc2c(c(=O)n(C)c(=O)n2C)n1Cc1cccc(C)c1	35.5 µM [falling, single point]	
Cc1ccc(C(C(=O)NC(C)(C)C)N(CCCN2CCOCC2)C(=O)c2ccc(-c3ccccc3)[nH]2)o1 (configuration not stated)	35.5 µM [rising, single point]	
CC1(C)CC(=O)C2=C(C1)N=C1c3ccccc3C(=O)C1C2c1ccc(Cl)cc1 (configuration not stated)	23.1 µM [falling, partial curve, poor fit]	
Cc1c(C(C)(C)O)[nH]c2cc(C(F)(F)F)ccc12	11.2 µM [rising, partial curve, poor fit]	
O=C(O)c1ccc(CN(c2ccccc2)S(=O)(=O)c2ccccc2)cc1	28.2 µM [rising, single point]	
O=C1OC(Nc2ccc3c(c2)OCO3)c2ccccc21 (configuration not stated)	5.01 µM [falling, partial curve, poor fit]	
Cc1ccc(N=Nc2ccc(O)c3ncccc23)cc1	5.17 µM [rising, full curve]	5.17 µM [falling, partial curve, poor fit]
COC(=O)c1cc(C(=O)NCCN2C(=O)S/C(=C\c3cccs3)C2=O)cc([N+](=O)[O-])c1	1.64 µM [rising, full curve, poor fit]	
CCOc1c(Cl)cc(/C=N/O)cc1OC	29.1 µM [rising, single point]	
CN1/C(=C\C=C2/C(=O)Oc3ccccc3C2=O)C(C)(C)c2ccccc21	6.51 µM [falling, partial curve]	
Cc1cccc(NS(=O)(=O)c2ccc(C(=O)N3CCN(c4ccccc4O)CC3)cc2)c1C	14.1 µM [falling, partial curve, poor fit]	

SMILES	AC50 [1]	AC50 [2]
O=C(O)/C=C1\NC(=O)c2ccccc21	35.5 µM [rising, partial curve, poor fit]	
CCS(=O)(=O)N1Cc2ccccc2CC1C(=O)Nc1cccc(C)c1 (configuration not stated)	7.94 µM [falling, partial curve, poor fit]	
CCNC(=O)NC(=O)COC(=O)CNC(=O)COc1ccccc1	0.517 µM [falling, full curve, poor fit]	
COc1cc(CC(=O)N/N=C/c2ccccc2)c([N+](=O)[O-])cc1OC	1.16 µM [falling, full curve]	
CN(C)c1cccc2c(S(=O)(=O)Nc3ccccn3)cccc12	14.6 µM [rising, single point]	
Clc1ccc2nc(-c3ccccc3)nc(C(Cl)Cl)c2c1	6.31 µM [rising, full curve, poor fit]	3.98 µM [falling, full curve]
COc1ccc(Cc2nc3ccc(C(=O)NC(C)Cc4ncccc4C)cc3o2)cc1OC (configuration not stated)	22.4 µM [falling, single point]	
Cc1ccc(CNC(=O)CCCc2cn(C)c3ccccc23)cc1	15.8 µM [falling, single point]	
Nc1nnnn1/N=C/c1ccccc1OCc1ccccc1	0.731 µM [rising, full curve, poor fit]	
CCOCc1c(C(=O)NCc2ccccc2CN2CCCC2)oc2ccccc12	6.51 µM [falling, full curve]	
COc1ccc(NC(=O)c2ccc3c(c2)C(=O)N(CC2CCCO2)C3=O)cc1 (configuration not stated)	35.5 µM [falling, partial curve, poor fit]	
CCCCN(C(=O)Cn1nnc2ccccc21)C(C(=O)NCCOC)c1ccccc1 (configuration not stated)	23.1 µM [rising, partial curve, poor fit]	
CCOc1ccc(S(=O)(=O)NCC(=O)N(C)Cc2cccnc2)cc1	8.2 µM [falling, partial curve]	
CCc1cc2c(=O)c(Oc3ccccc3)c(C)oc2cc1O	25.1 µM [rising, single point]	
O=C(Nc1ccc(N2CCN(C(=O)c3ccco3)CC2)cc1)c1ccco1	35.5 µM [rising, single point]	
COCCNC(=O)c1onc(CSc2ccc(Cl)cc2)c1C(=O)O	22.4 µM [falling, single point]	
CCCCn1nnc(N(C(=O)c2cccs2)C(=O)c2cccs2)n1	11.2 µM [falling, partial curve]	
Nc1nn(-c2ccccc2)c(N)c1N=Nc1ccccc1F	5.17 µM [falling, partial curve]	
Cc1cc(O)cc2c1C(c1ccc(F)cc1)CC1(CC(C)(C)NC(=S)N1)O2 (configuration not stated)	11.2 µM [falling, partial curve, poor fit]	20 µM [rising, partial curve, poor fit]
CCSc1ccccc1C(=O)N1CCN(c2ccccc2F)CC1	29.1 µM [rising, single point]	
Cc1ccc(-n2c([S-])c(C(=O)NC(C)c3ccccc3)[n+]3ccccc23)cc1 (configuration not stated)	22.4 µM [rising, single point]	
Nc1c2c(nc3ccccc13)CCCC2	25.9 µM [falling, partial curve, poor fit]	

Reformatted: 5 of the compounds above.
SMILES,AC50 [1],AC50 [2]
O=C(Nc1ccc(N2CCN(C(=O)c3ccco3)CC2)cc1)c1ccco1,"35.5 µM [rising, single point]",
COCCNC(=O)c1onc(CSc2ccc(Cl)cc2)c1C(=O)O,"22.4 µM [falling, single point]",
CCCCn1nnc(N(C(=O)c2cccs2)C(=O)c2cccs2)n1,"11.2 µM [falling, partial curve]",
Nc1nn(-c2ccccc2)c(N)c1N=Nc1ccccc1F,"5.17 µM [falling, partial curve]",
Cc1cc(O)cc2c1C(c1ccc(F)cc1)CC1(CC(C)(C)NC(=S)N1)O2 (configuration not stated),"11.2 µM [falling, partial curve, poor fit]","20 µM [rising, partial curve, poor fit]"

Going on with the list.

SMILES	AC50 [1]	AC50 [2]
O=C(CCc1ccccc1)Nc1nnc(-c2cccs2)o1	0.517 µM [falling, full curve, poor fit]	
C=CCn1c(SCC(=O)c2ccccc2)nnc1-c1ccc2c(c1)OCO2	29.1 µM [rising, single point]	
O=C(NC1CCCc2c1cnn2-c1ccc(F)cc1F)c1cnccn1 (configuration not stated)	35.5 µM [rising, single point]	
Clc1cccc(/C=N/Nc2nnc(Cl)c3ccccc23)c1	0.447 µM [rising, full curve, poor fit]	
O=C(NC1CCCC1)c1c(O)nc2sccn2c1=O	18.4 µM [falling, single point]	
COc1ccc(NC(=O)c2cc3ccccc3cc2OC)cc1	0.562 µM [rising, full curve]	
Cc1ccc(S(=O)(=O)N[C@@H](Cc2ccccc2)C(=O)N2CCC[C@@H]2C(=O)O)cc1 (Tos-Phe-[dP]-OH)	6.31 µM [rising, partial curve, poor fit]	
COC(=O)/C=C/C(=O)N1CCN(c2ccccc2C)CC1	29.1 µM [falling, single point]	
COc1cc(NC(=O)CSc2nnc3n2C(C)(C)Cc2ccccc2-3)cc(OC)c1	35.5 µM [falling, single point]	
CCOc1ccccc1OCCCNCc1ccccc1	28.2 µM [rising, partial curve, poor fit]	
CN1C(=O)CC(N2CCN(C(=O)c3ccccc3)CC2)C1=O (configuration not stated)	9.2 µM [rising, partial curve]	
CCC(=O)Nc1cccc(NC(=S)NC(=O)c2cccs2)c1	9.2 µM [falling, partial curve]	
CC(C)Oc1ccc(OCCn2c(=S)[nH]c3c(N)ncnc32)cc1	12.6 µM [rising, partial curve]	
Cc1ccc2[nH]c3c(=O)n4c(nc3c2c1)SCC4	0.112 µM [falling, full curve, poor fit]	
Cc1cc(C(=O)Nc2ccccc2Cl)n(-c2ccccc2)n1	11.2 µM [falling, single point]	
O=C(CCl)N1CCN(S(=O)(=O)c2ccc3ccccc3c2)CC1	11.2 µM [falling, partial curve, poor fit]	
Clc1ccc(-c2csc(=Nc3cccnc3)n2CCCn2ccnc2)cc1Cl	1.03 µM [rising, full curve, poor fit]	
COc1ccc2c(c1)cc1n2CCN2CCCN=C12	20.6 µM [rising, partial curve, poor fit]	
CCOc1cc(C(=O)OC(C)C(=O)Nc2ccc(S(N)(=O)=O)cc2)ccc1OCC(=O)N1CCOCC1 (configuration not stated)	7.31 µM [rising, partial curve, poor fit]	
Cc1ccc(N(CC(=O)NCc2ccco2)S(=O)(=O)c2ccccc2)cc1	35.5 µM [falling, single point]	
